Experimental data from publication PMC11765430.
No constants are given. Whether binding was seen depends on the method and setting. In cells and extracts the contact can be indirect. Some results given as binding are weak or reduced against the parent protein; the word gives no strength.

Protein sequences, listed by entry. Tags and fused reporters are not part of them.
UniProt Q12983: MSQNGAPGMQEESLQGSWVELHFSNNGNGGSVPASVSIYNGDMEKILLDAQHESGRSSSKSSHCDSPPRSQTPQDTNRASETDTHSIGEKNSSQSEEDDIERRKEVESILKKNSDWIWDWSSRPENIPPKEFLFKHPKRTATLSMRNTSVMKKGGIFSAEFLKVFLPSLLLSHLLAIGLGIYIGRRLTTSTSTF
UniProt P10415: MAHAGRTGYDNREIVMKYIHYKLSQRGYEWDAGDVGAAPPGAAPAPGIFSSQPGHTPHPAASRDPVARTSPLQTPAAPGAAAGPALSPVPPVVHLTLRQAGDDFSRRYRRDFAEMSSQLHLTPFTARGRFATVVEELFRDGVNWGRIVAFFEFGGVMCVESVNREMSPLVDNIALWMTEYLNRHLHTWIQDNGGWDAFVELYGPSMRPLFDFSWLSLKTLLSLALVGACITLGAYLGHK
UniProt Q14457: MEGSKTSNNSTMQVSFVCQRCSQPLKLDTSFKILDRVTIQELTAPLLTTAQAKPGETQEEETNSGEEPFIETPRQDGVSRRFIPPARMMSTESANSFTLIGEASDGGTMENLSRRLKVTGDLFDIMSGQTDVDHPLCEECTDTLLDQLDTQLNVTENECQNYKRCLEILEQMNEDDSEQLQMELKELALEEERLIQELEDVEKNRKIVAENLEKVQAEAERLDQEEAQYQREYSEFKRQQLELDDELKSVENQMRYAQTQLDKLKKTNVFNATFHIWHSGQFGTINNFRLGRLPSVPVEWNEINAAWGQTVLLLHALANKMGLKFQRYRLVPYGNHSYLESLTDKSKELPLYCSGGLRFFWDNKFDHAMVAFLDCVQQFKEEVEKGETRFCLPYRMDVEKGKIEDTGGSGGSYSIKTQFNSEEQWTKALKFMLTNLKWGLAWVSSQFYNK

Molecular target: BNIP3 (human (endogenous in KGN)) (UniProt Q12983)
Test: co-IP; KGN whole-cell extracts (IP lysis buffer with PMSF) incubated with anti-BNIP3 antibody at 4 °C for 12 h, Protein A/G magnetic beads 1 h at room temperature, immunoblot of the precipitates; cells cultured under hypoxia or normoxia, with or without 15 mM 2-DG, 15 mM oxamate, 3 mM α-CHCA, 15 mM Nala

| Substance | binding |
| --- | --- |
| Bcl-2 (from UniProt P10415 1-239) | binds |
| Beclin-1 (from UniProt Q14457 1-450) | binds |
